Measured values from PMC5095350, “Engineered AAA+ proteases reveal principles of proteolysis at the mitochondrial inner membrane” (Nature Communications, 2016).
No constants are given. Whether binding was seen depends on the method and setting.

Target: YME1L-AP (human) (UniProt Q96TA2)
Assay: condition: 1 mg of protein in a volume of 200 μl injected; SEC; analytical SEC, Superose 6 Increase 10/300 GL; 1 mg of protein in 200 μl; 50 mM Tris-HCl (pH 8.0), 100 mM NaCl, 0.5 mM TCEP; hexYME1L also with 5 mM EDTA or with ATPγS and MgCl2 (no change in migration); both purified

B1: YME1L-AP (domain or fragment, UniProt Q96TA2 317-773)
chain: RFRTTTGLDSAVDPVQMKNVTFEHVKGVEEAKQELQEVVEFLKNPQKFTILGGKLPKGILLVGPPGTGKTLLARAVAGEADVPFYYASGSEFDEMFVGVGASRIRNLFREAKANAPCVIFIDELDSVGGKRIESPMHPYSRQTINQLLAEMDGFKPNEGVIIIGATNFPEALDNALIRPGRFDMQVTVPRPDVKGRTEILKWYLNKIKFDQSVDPEIIARGTVGFSGAELENLVNQAALKAAVDGKEMVTMKELEFSKDKILMGPERRSVEIDNKNKTITAYHESGHAIIAYYTKDAMPINKATIMPRGPTLGHVSLLPENDRWNETRAQLLAQMDVSMGGRVAEELIFGTDHITTGASSDFDNATKIAKRMVTKFGMSEKLGVMTYSDTGKLSPETQSAIEQEIRILLRDSYERAKHILKTHAKEHKNLAEALLTYETLDAKEIQIVLEGKKLEVR
  binding: no binding
